Measurements reported in PMC7395460, “Structural mechanism of helicase loading onto replication origin DNA by ORC-Cdc6” (Proceedings of the National Academy of Sciences of the …, 2020).
Results are given in words; binding and its absence hold for the method and conditions named. Some results given as binding are weak or reduced against the parent protein; the word gives no strength.

Target: T1, Orc2 (S. cerevisiae), P32833
T1 chain: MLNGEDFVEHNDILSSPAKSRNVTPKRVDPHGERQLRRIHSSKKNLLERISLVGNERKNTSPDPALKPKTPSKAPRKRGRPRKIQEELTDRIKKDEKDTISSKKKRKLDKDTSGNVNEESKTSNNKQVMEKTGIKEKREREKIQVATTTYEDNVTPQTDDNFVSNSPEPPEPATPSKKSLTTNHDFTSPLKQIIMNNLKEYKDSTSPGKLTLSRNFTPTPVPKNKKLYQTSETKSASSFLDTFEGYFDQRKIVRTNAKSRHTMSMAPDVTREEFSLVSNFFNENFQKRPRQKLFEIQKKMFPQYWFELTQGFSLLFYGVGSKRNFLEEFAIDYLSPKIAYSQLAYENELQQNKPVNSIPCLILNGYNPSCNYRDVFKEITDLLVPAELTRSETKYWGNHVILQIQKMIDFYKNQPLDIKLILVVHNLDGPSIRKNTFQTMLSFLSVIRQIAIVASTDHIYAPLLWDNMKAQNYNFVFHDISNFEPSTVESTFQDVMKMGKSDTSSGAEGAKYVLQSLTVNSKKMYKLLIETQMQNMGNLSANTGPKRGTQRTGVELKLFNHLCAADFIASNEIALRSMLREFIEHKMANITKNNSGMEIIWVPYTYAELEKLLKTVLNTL
Assay: cryo-EM structure; semi-attached OCCM, 4.3 Å; assembled from purified ORC, Cdc6, Cdt1 and mutant Mcm2-7 on pUC19-ARS1 DNA beads with 3 mM ATPγS, 15 min at 24 °C, eluted with DNase I; both purified
Settings: remark: other sources report otherwise

B1: Cdc6 (natural protein, S. cerevisiae)
chain: MSAIPITPTKRIRRNLFDDAPATPPRPLKRKKLQFTDVTPESSPEKLQFGSQSIFLRTKALLQKSSELVNLNSSDGALPARTAEYEQVMNFLAKAISEHRSDSLYITGPPGTGKTAQLDMIIRQKFQSLPLSLSTPRSKDVLRHTNPNLQNLSWFELPDGRLESVAVTSINCISLGEPSSIFQKIFDSFQDLNGPTLQIKNMQHLQKFLEPYHKKTTFVVVLDEMDRLLHANTSETQSVRTILELFLLAKLPTVSFVLIGMANSLDMKDRFLSRLNLDRGLLPQTIVFQPYTAEQMYEIVIQKMSSLPTIIFQPMAIKFAAKKCAGNTGDLRKLFDVLRGSIEIYELEKRFLLSPTRGSLNSAQVPLTPTTSPVKKSYPEPQGKIGLNYIAKVFSKFVNNNSTRTRIAKLNIQQKLILCTIIQSLKLNSDATIDESFDHYIKAITKTDTLAPLQRNEFLEICTILETCGLVSIKKTKCKGKTKRFVDKIDVDLDMREFYDEMTKISILKPFLH
notes: Cdc6 of S. cerevisiae
- binding: binds
